Experimental data reported in US20170281792A1 (Genentech, published 2017).
Results are given in words; binding and its absence hold for the method and conditions named. Some results given as binding are weak or reduced against the parent protein; the word gives no strength.

Sequences of proteins named here, by UniProt entry; tags and fusion partners are left off. A change or cut given only in a name is not applied to a line headed by its entry.
UniProt Q13421: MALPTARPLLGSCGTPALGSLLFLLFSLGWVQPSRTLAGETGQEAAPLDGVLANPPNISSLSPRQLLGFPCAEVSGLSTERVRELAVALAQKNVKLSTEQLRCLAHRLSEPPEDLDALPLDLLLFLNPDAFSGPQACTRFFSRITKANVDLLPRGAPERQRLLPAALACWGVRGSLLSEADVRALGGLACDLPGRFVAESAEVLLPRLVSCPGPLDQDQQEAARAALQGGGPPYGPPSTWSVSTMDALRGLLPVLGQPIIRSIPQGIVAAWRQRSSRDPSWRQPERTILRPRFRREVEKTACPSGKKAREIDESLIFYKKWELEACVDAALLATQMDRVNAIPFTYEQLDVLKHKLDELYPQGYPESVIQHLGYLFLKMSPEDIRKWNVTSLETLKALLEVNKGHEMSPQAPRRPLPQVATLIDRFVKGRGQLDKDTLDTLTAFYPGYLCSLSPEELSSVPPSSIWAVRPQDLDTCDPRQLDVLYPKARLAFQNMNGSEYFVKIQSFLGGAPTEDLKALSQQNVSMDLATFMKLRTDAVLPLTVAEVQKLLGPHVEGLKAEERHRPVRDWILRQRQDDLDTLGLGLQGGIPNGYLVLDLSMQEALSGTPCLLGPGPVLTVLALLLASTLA

What was measured:
[1] = target: E. coli derived recombinant human mesothelin (human) (UniProt Q13421); test: SPR (Biacore), IgG over immobilized E. coli derived human mesothelin
[2] = target: human mesothelin on cells (endogenous on tumour cell lines and tissue, or stably expressed on A431 or HT1080 cells; no tag stated) (human) (UniProt Q13421); test: FACS on H226x2 cells, endogenous mesothelin
[3] = target: cyno mesothelin mutants (R153 to E and G174 to D) (cynomolgus monkey); test: FACS on cells expressing cyno mesothelin mutants (FIG. 18B)
[4] = target: human mesothelin on cells (endogenous on tumour cell lines and tissue, or stably expressed on A431 or HT1080 cells; no tag stated) (human) (UniProt Q13421); test: FACS on H226x2 and OvCar3x2.1 cells
[5] = target: immobilized human mesothelin (tryptic peptide mapping) (human) (UniProt Q13421); test: tryptic peptide mapping
[6] = target: gD epitope-tagged human mesothelin expressed on cells (construct #387) (human) (UniProt Q13421); test: FACS on stably transfected 293 cells, 10 µg/ml
G174D = test: FACS on cells expressing the cyno mesothelin mutant, signal as % of the anti-gD signal (Example G)
R153E = test: as above
[7] = target: E. coli derived recombinant human mesothelin (human) (UniProt Q13421); test: SPR (Biacore), summary of the humanization
[8] = target: human mesothelin on cells (endogenous on tumour cell lines and tissue, or stably expressed on A431 or HT1080 cells; no tag stated) (human) (UniProt Q13421); test: FACS on HPAC cells, endogenous mesothelin
[9] = target: human mesothelin on cells (endogenous on tumour cell lines and tissue, or stably expressed on A431 or HT1080 cells; no tag stated) (human) (UniProt Q13421); test: FACS on OvCar3x2.1 cells, endogenous mesothelin
[10] = target: gD epitope-tagged human mesothelin expressed on cells (construct #387) (human) (UniProt Q13421); test: immunoprecipitation from BJAB cells stably expressing gD-tagged human mesothelin, Western blot with murine anti-gD
[11] = target: gD epitope-tagged human mesothelin expressed on cells (construct #387) (human) (UniProt Q13421); test: immunoprecipitation from HT1080 cells
[12] = target: C-terminally his-tagged human mesothelin expressed in CHO cells (Mono S fractions A11, A12, B1, B5) (human) (UniProt Q13421); test: figure legend (SPR and immunoprecipitation)

Measured: binding

B1: humanized monoclonal antibody 7D9.v3 (antibody, V domains shown)
VH: EVQLVESGGGLVQPGGSLRLSCAASGYTFTTYWMHWVRQAPGKGLEWVGYIRPSTGYTEYNQKFKDRFTISADTSKNTAYLQMNSLRAEDTAVYYCARSRWLLDYWGQGTLVTVS
VL: DIQMTQSPSSLSASVGDRVTITCKSSQSVLYSSNQKNYLAWFQQKPGKAPKLLIYWASTRESGVPSRFSGSGSGTDFTLTISSLQPEDFATYFCHQYLSSYTFGQGTKVEIKR
notes: also called h7D9.v3; hu7D9.v3
binds: [1] | [2] | [3] | [4] | [5] | [6] | G174D | R153E | [7] | [8] | [9] | [10] | [11] | [12]
